Experimental data taken from publication PMC5333157.
These are yes or no findings as the source states them, for the method shown. For some assays here: Binding seen in cells or lysates may run through a third protein. For some assays here: A result given as binding can be weak or reduced; the word gives no strength. Values belong to the substance of their own block, whether it stands above or below them.

Sequences of proteins named here, by UniProt entry; tags and fusion partners are left off. A change or cut given only in a name is not applied to a line headed by its entry.
UniProt P31152: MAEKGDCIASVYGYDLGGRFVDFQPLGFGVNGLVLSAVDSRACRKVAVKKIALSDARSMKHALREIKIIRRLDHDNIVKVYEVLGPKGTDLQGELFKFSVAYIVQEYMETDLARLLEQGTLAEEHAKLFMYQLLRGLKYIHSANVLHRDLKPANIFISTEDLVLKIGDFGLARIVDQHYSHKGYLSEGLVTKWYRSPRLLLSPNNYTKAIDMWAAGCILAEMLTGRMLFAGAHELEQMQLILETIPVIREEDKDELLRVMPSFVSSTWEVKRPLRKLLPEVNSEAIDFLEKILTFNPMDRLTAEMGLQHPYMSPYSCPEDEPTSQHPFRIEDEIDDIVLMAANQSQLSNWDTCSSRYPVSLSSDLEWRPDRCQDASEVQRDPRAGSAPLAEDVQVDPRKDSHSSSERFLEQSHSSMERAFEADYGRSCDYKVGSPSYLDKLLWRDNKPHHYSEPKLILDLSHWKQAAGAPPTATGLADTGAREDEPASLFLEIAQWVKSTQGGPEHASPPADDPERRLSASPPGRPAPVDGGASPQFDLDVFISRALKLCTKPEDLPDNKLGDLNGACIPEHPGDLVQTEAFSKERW
UniProt Q05923: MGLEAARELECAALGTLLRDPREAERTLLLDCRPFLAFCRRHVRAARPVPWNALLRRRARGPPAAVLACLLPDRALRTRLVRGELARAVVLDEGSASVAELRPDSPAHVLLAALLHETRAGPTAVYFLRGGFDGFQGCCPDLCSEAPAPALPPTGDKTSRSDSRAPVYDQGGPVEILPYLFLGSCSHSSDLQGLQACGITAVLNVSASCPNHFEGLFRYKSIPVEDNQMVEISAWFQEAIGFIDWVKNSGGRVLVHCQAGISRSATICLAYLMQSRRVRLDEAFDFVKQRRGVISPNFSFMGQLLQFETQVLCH
UniProt Q16659: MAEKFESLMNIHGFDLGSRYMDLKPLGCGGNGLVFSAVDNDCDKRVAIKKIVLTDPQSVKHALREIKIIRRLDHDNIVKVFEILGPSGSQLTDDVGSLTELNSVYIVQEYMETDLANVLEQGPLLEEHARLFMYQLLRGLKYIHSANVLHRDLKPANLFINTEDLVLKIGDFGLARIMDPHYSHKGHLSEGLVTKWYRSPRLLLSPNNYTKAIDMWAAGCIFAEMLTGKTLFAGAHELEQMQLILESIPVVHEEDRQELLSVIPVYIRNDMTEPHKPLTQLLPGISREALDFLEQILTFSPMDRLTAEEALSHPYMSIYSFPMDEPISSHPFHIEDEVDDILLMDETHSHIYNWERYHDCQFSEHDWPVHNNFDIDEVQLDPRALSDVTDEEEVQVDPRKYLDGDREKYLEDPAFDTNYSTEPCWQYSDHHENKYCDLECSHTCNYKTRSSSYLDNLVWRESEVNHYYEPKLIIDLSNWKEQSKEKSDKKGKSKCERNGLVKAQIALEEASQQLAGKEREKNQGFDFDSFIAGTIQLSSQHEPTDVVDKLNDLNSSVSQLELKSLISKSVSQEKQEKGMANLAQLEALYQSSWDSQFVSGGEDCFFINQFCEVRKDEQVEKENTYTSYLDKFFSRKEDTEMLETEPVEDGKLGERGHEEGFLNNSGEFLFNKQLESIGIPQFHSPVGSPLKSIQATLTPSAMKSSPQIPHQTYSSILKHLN

Tests used:
[1] = target: myc-tagged wild-type ERK4 (ERK4wt) (UniProt P31152); test: co-IP; HeLa cells co-transfected with myc-tagged ERK4 and HA-tagged DUSP2; anti-myc immunoprecipitation; DUSP2 visualized with anti-HA
[2] = target: myc-tagged wild-type ERK4 (ERK4wt) (UniProt P31152); test: co-IP; NCI-H1299 cells co-transfected with FLAG-tagged ERK3 or myc-tagged ERK4 and tagged DUSP2CS; anti-FLAG or anti-myc immunoprecipitation; DUSP2 detected with a DUSP2 specific antibody
[3] = target: myc-tagged common-docking site ERK4 mutant (ERK4D320N) (UniProt P31152); test: as above
[4] = target: myc-tagged ERK4 mutant in which the FRIEDE motif was rendered non-functional (ERK4I330K) (UniProt P31152); test: as above
[5] = target: HA-tagged wild-type DUSP2 (DUSP2-HA) (human) (UniProt Q05923); test: co-IP; HEK-293 cells transfected with HA-tagged DUSP2; anti-HA immunoprecipitation; endogenous ERK4 and ERK2 detected by Western blot
[6] = target: HA-tagged catalytically inactive DUSP2 (DUSP2CS-HA) (human) (UniProt Q05923); test: as above
[7] = target: HA-tagged catalytically inactive DUSP2 with mutated KIM (DUSP2CSKIM-HA) (human) (UniProt Q05923); test: as above
[8] = target: DUSP2 mutant lacking a functional KIM (DUSP2KIM), GAL4 DNA-binding domain fusion (human) (UniProt Q05923); test: two-hybrid; GAL4 activation domain fusions of ERK3, ERK4 or ERK2 (pGADT7, Y187) mated with GAL4 DNA-binding domain fusions of MKPs (pGBKT7, PJ69-2A); growth on SD medium lacking leucine, tryptophan, alanine and histidine
[9] = target: FLAG-tagged wild-type ERK3 (ERK3wt) (UniProt Q16659); test: co-IP; NCI-H1299 cells co-transfected with FLAG-tagged ERK3 or myc-tagged ERK4 and tagged DUSP2CS; anti-FLAG or anti-myc immunoprecipitation; DUSP2 detected with a DUSP2 specific antibody
[10] = target: FLAG-tagged common-docking site ERK3 mutant (ERK3D324N) (UniProt Q16659); test: as above
[11] = target: FLAG-tagged FRIEDE ERK3 mutant (ERK3I334K) (UniProt Q16659); test: as above
[12] = target: myc-tagged wild-type DUSP2 (human) (UniProt Q05923); test: co-IP; NCI-H1299 cells transfected with myc-tagged DUSP2; anti-Myc immunoprecipitation; endogenous ERK3 detected by Western blot (clone 4C11)
[13] = target: myc-tagged catalytically inactive mutant of DUSP2 (DUSP2CS-Myc) (human) (UniProt Q05923); test: as above

binding [1]: binds | binding [2]: binds | binding [3]: no binding | binding [4]: binds
Substance: HA-tagged catalytically inactive DUSP2 (DUSP2CS-HA) (from UniProt Q05923) (enzyme)

binding [5]: binds | binding [6]: binds | binding [7]: no binding
Substance: endogenous ERK4 (from UniProt P31152 1-587) (enzyme)

binding [8]: no binding
Substance: ERK4 (wild-type), GAL4 activation domain fusion (from UniProt P31152 1-587) (enzyme)

binding [8]: no binding
Substance: ERK3 (wild-type), GAL4 activation domain fusion (from UniProt Q16659 1-721) (enzyme)

binding [9]: binds | binding [10]: no binding | binding [11]: binds
Substance: myc-tagged catalytically inactive mutant of DUSP2 (DUSP2CS-Myc) (from UniProt Q05923) (enzyme)

binding [12]: binds | binding [13]: binds
Substance: endogenous ERK3 (from UniProt Q16659 1-721) (enzyme)
